Laboratory results: PubChem BioAssay AID651660 (Broad Institute, 2012)
“And” between values parts separate entries of the source, which are not always exact repeats. Equal entries are not always repeated. In all, about 1,900 compounds went through this assay and about 15 (0.8%) were called active.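 The calls were made as follows: active = every replicate shows at least 50% inhibition; inconclusive = mean inhibition at least 50% but some replicate below; inactive = the rest.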 The list shows a part of the results.

Sequences of proteins named here, by UniProt entry; tags and fusion partners are left off. A change or cut given only in a name is not applied to a line headed by its entry.
UniProt P43351: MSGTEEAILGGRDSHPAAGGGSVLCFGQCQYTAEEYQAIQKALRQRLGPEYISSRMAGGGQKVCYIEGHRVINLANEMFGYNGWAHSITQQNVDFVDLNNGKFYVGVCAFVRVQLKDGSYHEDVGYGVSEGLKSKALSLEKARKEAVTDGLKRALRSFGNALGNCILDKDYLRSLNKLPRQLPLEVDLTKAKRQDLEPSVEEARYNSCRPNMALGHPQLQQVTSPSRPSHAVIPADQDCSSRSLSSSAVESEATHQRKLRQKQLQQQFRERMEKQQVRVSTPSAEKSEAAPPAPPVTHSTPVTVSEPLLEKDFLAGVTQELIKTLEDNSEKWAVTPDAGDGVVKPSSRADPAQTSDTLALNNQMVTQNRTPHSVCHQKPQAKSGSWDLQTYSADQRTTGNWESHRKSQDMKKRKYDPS

Biological target: DNA repair protein RAD52 homolog (Homo sapiens) (UniProt P43351)
Test: inhibition of RAD52-mediated strand annealing – biochemical, FRET, single point, primary screen (AID 651660);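 also: 0% = median of neutral control wells and 100% = median of positive control wells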
Details: Recombinant RAD52 ssDNA annealing, FRET fluorescence, 30 min; at 18.7 µM; stronger effect = higher value

inhibition, inactive:
COc1c2c(nc3occc13)C(CC=C(C)C)(OC)C(O)CC2 (centres undefined) -12.2%
C[N+]12CCCCC1C(COC(=O)c1ccc3c(c1)OCO3)CCC2 (centres undefined) 8.11%
Cc1cc(OC(C(=O)O)c2ccccc2)c2c(C)c(Cc3ccccc3)c(=O)oc2c1 (centres undefined) -12.1%
CC1(C)CC(=O)C(C2(O)C(=O)Nc3ccccc32)CO1 (centres undefined) -4.58%
O=C(CCCCC(=O)NC1CCCC1)NC1CCCC1 -2.55%
CC[C@H](C)C(=O)O[C@H]1C[C@@H](C)C=C2C=C[C@H](C)[C@H](CC[C@@H]3C[C@@H](O)CC(=O)O3)[C@H]21 -3.45%
Cc1nc(C2CC(=O)OC23CCCCC3)cs1 (centres undefined) -9.38%
COc1ccc(C(=O)O)cc1F -6.77%
Cc1ccc(C2CC(c3cccs3)=NN2C(=O)c2ccco2)o1 (centres undefined) -5.04%
COc1cc(CNc2ccc(C)c(C)c2)cc(OC)c1OC -4.85%
CC(=O)N[C@@H](CS)C(=O)O 1.59%
O=C(CNC(=O)OCc1ccccc1)NC1CCCCCC1 0.625%
O=C(OCC(O)C(O)COC(=O)c1ccccc1)c1ccccc1 (centres undefined) -10.3%
O=C(CCc1ccccc1)Nc1ccccc1C(F)(F)F -1.84%
CC(=O)c1c(C)c(C)c2n1CCn1c(C)ccc1-2 -152%
Oc1ccc(COCc2ccccc2)c2cccnc12 -34.7%
O=C(O)c1cc2cc(Cl)cc(Cl)c2oc1=O -23.7%
COc1ccc(NC(=S)NCCc2c[nH]c3ccccc23)cc1 7.25%
O=C(NCCNc1ccc(Cl)cc1[N+](=O)[O-])c1cccnc1 -2.03%
CC(C)Oc1ccc(C2CC(=O)N(c3ccc(C(=O)O)cc3)C2=O)cc1 (centres undefined) -4.85%
O=C(NC(Nc1ccccn1)C(Cl)(Cl)Cl)c1ccccc1 (centres undefined) -5.2%
C[C@]12C[C@H](O)[C@H]3[C@@H](CCC4=CC(=O)CC[C@@]43C)[C@@H]1CC[C@@H]2C(=O)CO -1.6%
c1ccc(-c2ccccn2)nc1 -16%
COCCOC(=O)C1=C(N)OC2=C(C(=O)CCC2)C1c1cccnc1 (centres undefined) -5.44%
CCSc1nc(O)c(C2OC(=O)c3c2ccc(OC)c3OC)c(=O)n1CC (centres undefined) -5.46%
CCN(CC)C(=S)SSC(=S)N(CC)CC -20%
CCOC(=O)C(NC(C)=O)C(O)c1ccc([N+](=O)[O-])cc1 (centres undefined) 1.8%
COc1cc2cc(C(=O)O)n(C)c2c(OC)c1OC -3.98%
CCNC(=O)c1c(N)sc2c1CCCCC2 -63%
Nc1c2c(nc3ccccc13)CCCC2 18.1%
COc1ccc(C(C)N2CC34C=CC(O3)C(C(=O)OCC(C)C)C4C2=O)cc1 (centres undefined) 6.46%
O=C1OC(Nc2ccc3c(c2)OCO3)c2ccccc21 (centres undefined) -1.7%
COc1cc2c3c(c1)C1(C(=O)N3C(C)(C)C=C2C)C(C#N)=C(N)Oc2cc(C)oc(=O)c21 (centres undefined) 9.01%
COc1cc2c(cc1OC)C(C)=NC1(CCCCC1)C2 -27.9%
COc1ccc2[nH]c3c(c2c1)CCn1c-3nc2ccccc2c1=O -28.6%
Cc1ccc2nc(NC3=NC(CC(=O)O)C(=O)N3)nc(C)c2c1 (centres undefined) 7.8%
CC(=O)[C@@]1(O)CC[C@H]2[C@@H]3C[C@H](C)C4=CC(=O)CC[C@]4(C)[C@H]3CC[C@@]21C -0.875%
OCC1(CCOc2ccccc2)CCN(CCCn2cccn2)CC1 5.11%
Cn1c2ccc(CC(=O)O)cc2c2cc(CC(=O)O)ccc21 -173%
COc1cc(NC(=O)N[C@@H](Cc2ccccc2)C(=O)O)cc(OC)c1 -12%
NS(=O)(=O)c1cc2c(cc1Cl)NC(CSCc1ccccc1)=NS2(=O)=O -11.8%
CCNC(=O)c1sc2cc(C)ccc2c1Cl -3.45%
Cc1cc(NS(=O)(=O)c2ccc(N)cc2)no1 -13.7%
Cc1ccccc1NC(=O)c1c(C)cc(=O)oc1C -0.543%
O=C(CNC(=O)OCc1ccccc1)Oc1cc2oc(=O)cc(-c3ccccc3)c2cc1Cl -7.29%
Cc1ccc([N+](=O)[O-])cc1NC1OC(CO)C(O)C1O (centres undefined) 3.33%
CC1(C)Cc2nc3oc4c(NCc5ccccc5)ncnc4c3cc2CO1 0.368%
CCCC1O[C@@H]2C[C@H]3[C@@H]4CCC5=CC(=O)C=C[C@]5(C)[C@H]4[C@@H](O)C[C@]3(C)[C@]2(C(=O)CO)O1 (some centres undefined) 4.83%
CC(=O)N1CCN2C(=O)C1CCCC(=O)c1cc(C(C)C)ccc12 (centres undefined) -1.53%
CCOC(=O)Cc1c(C)nc(N)[nH]c1=O -3.45%
CCOC(=O)c1ncn2c1CN(C)C(=O)c1cc(F)ccc1-2 3.73%
COc1cc(SC)ccc1C(=O)NC(C)C -10.4%
COc1ccc(C(=O)NCCC2=CCCCC2)cc1[N+](=O)[O-] 4.28%
CC(C(=O)O)c1cccc(C(=O)c2ccccc2)c1 (centres undefined) -4.14%
Cc1oc2cc(O)cc(O)c2c(=O)c1-c1ccc2c(c1)OCCCO2 3.6%
O=C(O)c1ccc(OCCn2ccnc2)cc1 -2.71%
Cc1occc(=O)c1O -1.11%
CCOCCn1c(C(C)O)nc2ccccc21 (centres undefined) 2.97%
COc1cc2c(cc1OC)C(c1ccccc1)=NCC2 -2.91%
COc1ccc(C(=O)Nc2cccnc2)cc1C(=O)Nc1cccnc1 -8.6%
CCC12CN3CC(CC)(CN(C1)C31C(=O)N(C)c3ccc(C)cc31)C2=O (centres undefined) -6.86%
Cn1cnc2c1c(=O)n(CC(O)CO)c(=O)n2C (centres undefined) -8.16%
CC(=O)OCC(=O)[C@@]1(O)[C@H](C)C[C@H]2[C@@H]3CCC4=CC(=O)C=C[C@]4(C)[C@@]3(F)[C@@H](O)C[C@@]21C 1.44%
Cc1ccccc1NC(=O)NCCc1c[nH]c2ccccc12 -17.5%
Nc1nc2c(ncn2COCCO)c(=O)[nH]1 -1.55%
O=c1c2[nH]c3ccccc3c2ncn1CCC1=CCCCC1 3.7%
COc1ccc2nc(Nc3nc(CSc4ccc(C)cc4)cc(=O)[nH]3)nc(C)c2c1 -6.23%
COc1cc(CNCCc2ccccc2F)ccc1OCC(=O)N1CCCCC1 -0.54%
CC(O)Cn1cnc2c1c(=O)n(C)c(=O)n2C (centres undefined) 5.86%
O=C(NC(=S)N1CCCCC1)c1cccnc1 -0.676%
NS(=O)(=O)c1cc2c(cc1C(F)(F)F)NCNS2(=O)=O 2.13%
CC(C)C12CN3CC(C(C)C)(CN(C1)C3c1ccccc1O)C2=O (centres undefined) -7%
CC12CN3CC(C)(CN(C1)C3c1ccc(Br)cc1O)C2 (centres undefined) -9.4%
O=S(=O)(NCCCCCNS(=O)(=O)c1ccccc1)c1ccccc1 3.3%
CCOC(=O)/C=C1\NC(C)(C)Cc2cc(OC)c(OC)cc21 1.32%
CCc1ccc(/C=C2\SC(=S)N(CCC(=O)N3CCN(C)CC3)C2=O)cc1 4.06%
COC(=O)c1cc(=O)c2ccc(OC)cc2o1 -8.77%
Cc1cccc(C)c1NS(=O)(=O)c1ccc(NC(=O)c2ccc(Cl)c([N+](=O)[O-])c2)cc1 -9.74%
CC(=O)CCc1oc2ccccc2c1-c1ccccc1 3.27%
COc1ccc(Cc2noc(CN(C)CCN3CCc4ccccc4C3)n2)cc1OC 2.83%
CCOC(=O)COc1ccc2c(=O)c(-c3ccccc3)coc2c1 5.29%
NC(N)=NC(=O)c1nc(Cl)c(N)nc1N 24.7%
CC(C)C12CN3CC(C(C)C)(CN(C1)C31C(=O)Nc3ccccc31)C2=O (centres undefined) -8.73%
CC(=O)CSc1ncnc2c1cnn2-c1ccccc1 -1.45%
CCN(CC)CC(=O)Nc1c(C)cccc1C -0.181% and -3.09%
COc1ccc(C(=O)CC2OC(=O)c3c2ccc(OC)c3OC)cc1 (centres undefined) -3.39%
COc1ccc(/C=C\c2cc(OC)c(OC)cc2CC[N+](C)(C)C)cc1OC 29.6%
c1ccc2c(CC3=NCCN3)cccc2c1 -5.42%
O=C(N/N=C\c1cc([N+](=O)[O-])ccc1N1CCOCC1)c1ccccn1 -7.1%
CCOc1ccc(C(=O)N2CCCC2C(=O)O)cc1 (centres undefined) 3.33%
Cc1cn([C@H]2C=C[C@@H](CO)O2)c(=O)[nH]c1=O -3.8%
CC(=O)NS(=O)(=O)c1ccc(N)cc1 0.255%
O=C1CC(c2ccc(O)cc2)Oc2cc(O)cc(O)c21 (centres undefined) 4.91%
Cn1cc(CN2CCCC(CO)(Cc3cccc(Cl)c3)C2)cn1 (centres undefined) -3.54%
O=C(O)c1ccc(-c2ccc(O)c(F)c2)cc1 -3.36%
Cc1cc(=O)oc2c(CN(C)Cc3ccccc3)c(O)ccc12 -0.676%
CC(C)COC(=O)C1C(=O)CC(C)(O)C(C(=O)OCC(C)C)C1c1cccnc1 (centres undefined) 5.4%
CCCCOn1c(C)c(C(C)=O)c2c3no[n+]([O-])c3ccc21 -14.2%
NC(=O)C1CCCNC1 (centres undefined) 0.725%

An excerpt from above in order of heavy-atom count, rising:
inhibition, inactive:
Cc1ccccc1NC(=O)NCCc1c[nH]c2ccccc12 -17.5%
Cc1cc(=O)oc2c(CN(C)Cc3ccccc3)c(O)ccc12 -0.676%
COc1ccc(C(=O)Nc2cccnc2)cc1C(=O)Nc1cccnc1 -8.6%

Copied from above, 3 compounds:
inhibition, inactive:
CCSc1nc(O)c(C2OC(=O)c3c2ccc(OC)c3OC)c(=O)n1CC (centres undefined) -5.46%
CCN(CC)C(=S)SSC(=S)N(CC)CC -20%
CCOC(=O)C(NC(C)=O)C(O)c1ccc([N+](=O)[O-])cc1 (centres undefined) 1.8%
